Results as given in paper PMC12669712.
Results are given in words; binding and its absence hold for the method and conditions named. In cells and extracts the contact can be indirect. For some of these results: Binding calls can cover weak binding; strength is not graded here.

Columns and labels:
Assay in all cases: pull-down; TNT-made KSR1 incubated with glutathione-Sepharose beads coated with the GST protein for 3 h at 4 °C in Buffer A (150 mM NaCl, 50 mM Tris-HCl, pH 7.4, 1% Triton X-100); five washes; Western blot with anti-KSR1 and anti-GST; only the target purified
[1] = molecular target: GST-tagged YAP fragment C (aa 228-454)
[2] = molecular target: GST-tagged YAP fragment M (aa 115-341)
[3] = molecular target: GST-tagged YAP fragment N (amino acids 2-227)
[4] = molecular target: GST-tagged YAP, full-length (F)

binding [1]: no binding | binding [2]: no binding | binding [3]: binds | binding [4]: binds
B1: Kinase Suppressor of Ras 1 (KSR1), produced by in vitro transcription and translation (TNT) (protein, UniProt Q8IVT5 1-923)
chain: MDRAALRAAAMGEKKEGGGGGDAAAAEGGAGAAASRALQQCGQLQKLIDISIGSLRGLRTKCAVSNDLTQQEIRTLEAKLVRYICKQRQCKLSVAPGERTPELNSYPRFSDWLYTFNVRPEVVQEIPRDLTLDALLEMNEAKVKETLRRCGASGDECGRLQYALTCLRKVTGLGGEHKEDSSWSSLDARRESGSGPSTDTLSAASLPWPPGSSQLGRAGNSAQGPRSISVSALPASDSPTPSFSEGLSDTCIPLHASGRLTPRALHSFITPPTTPQLRRHTKLKPPRTPPPPSRKVFQLLPSFPTLTRSKSHESQLGNRIDDVSSMRFDLSHGSPQMVRRDIGLSVTHRFSTKSWLSQVCHVCQKSMIFGVKCKHCRLKCHNKCTKEAPACRISFLPLTRLRRTESVPSDINNPVDRAAEPHFGTLPKALTKKEHPPAMNHLDSSSNPSSTTSSTPSSPAPFPTSSNPSSATTPPNPSPGQRDSRFNFPAAYFIHHRQQFIFPVPSAGHCWKCLLIAESLKENAFNISAFAHAAPLPEAADGTRLDDQPKADVLEAHEAEAEEPEAGKSEAEDDEDEVDDLPSSRRPWRGPISRKASQTSVYLQEWDIPFEQVELGEPIGQGRWGRVHRGRWHGEVAIRLLEMDGHNQDHLKLFKKEVMNYRQTRHENVVLFMGACMNPPHLAIITSFCKGRTLHSFVRDPKTSLDINKTRQIAQEIIKGMGYLHAKGIVHKDLKSKNVFYDNGKVVITDFGLFGISGVVREGRRENQLKLSHDWLCYLAPEIVREMTPGKDEDQLPFSKAADVYAFGTVWYELQARDWPLKNQAAEASIWQIGSGEGMKRVLTSVSLGKEVSEILSACWAFDLQERPSFSLLMDMLEKLPKLNRRLSHPGHFWKSADINSSKVVPRFERFGLGVLESSNPKM
